Experimental data published in article PMC8660799, “Cryo-EM reveals unique structural features of the FhuCDB Escherichia coli ferrichrome importer” (Communications Biology, 2021).
Results are given in words; binding and its absence hold for the method and conditions named. Some binding calls cover weakened binding; strength is not graded here.

Assays:
[1] = biological target: T1, FhuCB subcomplex with FhuB E304 mutated to Ala (Escherichia coli) (UniProt P07821+P06972); assay: MST; FhuCB with FhuB mutants in detergent, labelled on the His-tag; FhuD loaded with ferrichrome titrated; whether ATP-Mg was present is not given; both purified
T1 sequence (chain, red-tris-NTA 2nd generation dye on the His-tag) 1: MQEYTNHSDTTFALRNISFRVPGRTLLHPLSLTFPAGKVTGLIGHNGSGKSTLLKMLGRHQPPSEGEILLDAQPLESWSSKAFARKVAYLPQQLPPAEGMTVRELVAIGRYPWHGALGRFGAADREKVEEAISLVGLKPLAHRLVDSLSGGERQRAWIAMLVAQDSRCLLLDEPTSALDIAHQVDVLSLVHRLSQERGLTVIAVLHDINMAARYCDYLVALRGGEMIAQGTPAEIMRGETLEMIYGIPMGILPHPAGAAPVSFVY
T1 sequence (chain, red-tris-NTA 2nd generation dye on the His-tag) 2: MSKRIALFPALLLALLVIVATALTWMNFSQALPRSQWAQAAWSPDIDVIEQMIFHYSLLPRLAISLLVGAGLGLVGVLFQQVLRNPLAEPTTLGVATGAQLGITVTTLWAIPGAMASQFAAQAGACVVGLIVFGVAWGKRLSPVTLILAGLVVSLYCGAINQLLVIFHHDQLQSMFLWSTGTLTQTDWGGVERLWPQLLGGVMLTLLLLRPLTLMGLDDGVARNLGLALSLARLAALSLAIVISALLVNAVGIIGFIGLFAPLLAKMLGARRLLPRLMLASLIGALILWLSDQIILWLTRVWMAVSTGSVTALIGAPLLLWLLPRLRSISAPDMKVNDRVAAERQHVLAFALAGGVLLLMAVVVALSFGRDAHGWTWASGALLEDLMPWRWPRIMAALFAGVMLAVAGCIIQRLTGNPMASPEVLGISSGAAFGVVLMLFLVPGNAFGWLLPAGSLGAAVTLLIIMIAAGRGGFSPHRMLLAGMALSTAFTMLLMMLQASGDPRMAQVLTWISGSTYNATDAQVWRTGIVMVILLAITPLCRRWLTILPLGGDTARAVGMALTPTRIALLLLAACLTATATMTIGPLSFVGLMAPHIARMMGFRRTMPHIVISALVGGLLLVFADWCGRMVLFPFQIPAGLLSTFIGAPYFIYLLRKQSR

[2] = biological target: T2, FhuCB subcomplex with FhuB Q636 mutated to Ala (Escherichia coli) (UniProt P07821+P06972); assay: as above
T2 sequence (chain, red-tris-NTA 2nd generation dye on the His-tag) 1: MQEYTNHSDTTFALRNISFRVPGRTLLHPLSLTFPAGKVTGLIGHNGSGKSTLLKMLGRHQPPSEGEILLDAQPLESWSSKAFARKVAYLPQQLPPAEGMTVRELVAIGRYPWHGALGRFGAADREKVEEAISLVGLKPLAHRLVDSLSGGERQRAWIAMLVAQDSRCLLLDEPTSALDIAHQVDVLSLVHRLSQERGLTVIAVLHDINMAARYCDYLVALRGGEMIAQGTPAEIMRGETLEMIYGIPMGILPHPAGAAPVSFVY
T2 sequence (chain, red-tris-NTA 2nd generation dye on the His-tag) 2: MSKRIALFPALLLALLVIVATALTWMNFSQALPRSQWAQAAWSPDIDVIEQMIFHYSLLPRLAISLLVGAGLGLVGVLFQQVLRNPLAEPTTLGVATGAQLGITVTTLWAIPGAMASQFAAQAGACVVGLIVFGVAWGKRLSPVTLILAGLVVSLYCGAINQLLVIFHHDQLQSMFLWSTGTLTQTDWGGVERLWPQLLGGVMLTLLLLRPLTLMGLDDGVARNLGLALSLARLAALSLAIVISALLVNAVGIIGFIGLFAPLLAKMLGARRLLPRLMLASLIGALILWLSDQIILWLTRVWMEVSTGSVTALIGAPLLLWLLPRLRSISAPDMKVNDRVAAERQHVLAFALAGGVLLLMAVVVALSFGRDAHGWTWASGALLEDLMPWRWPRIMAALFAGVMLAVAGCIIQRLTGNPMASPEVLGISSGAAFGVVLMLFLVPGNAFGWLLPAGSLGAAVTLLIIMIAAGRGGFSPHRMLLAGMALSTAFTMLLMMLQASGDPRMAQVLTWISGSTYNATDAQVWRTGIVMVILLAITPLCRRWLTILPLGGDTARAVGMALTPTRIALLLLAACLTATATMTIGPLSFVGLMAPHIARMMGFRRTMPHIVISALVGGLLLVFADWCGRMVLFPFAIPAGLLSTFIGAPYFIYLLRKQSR

[3] = biological target: T3, FhuCB subcomplex with FhuB Q507 and T510 mutated to Ala (Escherichia coli) (UniProt P07821+P06972); assay: as above
T3 sequence (chain, red-tris-NTA 2nd generation dye on the His-tag) 1: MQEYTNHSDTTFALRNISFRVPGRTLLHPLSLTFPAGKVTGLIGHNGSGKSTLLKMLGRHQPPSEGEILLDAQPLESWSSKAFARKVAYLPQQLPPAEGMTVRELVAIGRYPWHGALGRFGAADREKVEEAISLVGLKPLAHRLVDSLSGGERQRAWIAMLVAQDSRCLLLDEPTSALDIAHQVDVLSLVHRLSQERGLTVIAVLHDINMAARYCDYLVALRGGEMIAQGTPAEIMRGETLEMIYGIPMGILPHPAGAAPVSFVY
T3 sequence (chain, red-tris-NTA 2nd generation dye on the His-tag) 2: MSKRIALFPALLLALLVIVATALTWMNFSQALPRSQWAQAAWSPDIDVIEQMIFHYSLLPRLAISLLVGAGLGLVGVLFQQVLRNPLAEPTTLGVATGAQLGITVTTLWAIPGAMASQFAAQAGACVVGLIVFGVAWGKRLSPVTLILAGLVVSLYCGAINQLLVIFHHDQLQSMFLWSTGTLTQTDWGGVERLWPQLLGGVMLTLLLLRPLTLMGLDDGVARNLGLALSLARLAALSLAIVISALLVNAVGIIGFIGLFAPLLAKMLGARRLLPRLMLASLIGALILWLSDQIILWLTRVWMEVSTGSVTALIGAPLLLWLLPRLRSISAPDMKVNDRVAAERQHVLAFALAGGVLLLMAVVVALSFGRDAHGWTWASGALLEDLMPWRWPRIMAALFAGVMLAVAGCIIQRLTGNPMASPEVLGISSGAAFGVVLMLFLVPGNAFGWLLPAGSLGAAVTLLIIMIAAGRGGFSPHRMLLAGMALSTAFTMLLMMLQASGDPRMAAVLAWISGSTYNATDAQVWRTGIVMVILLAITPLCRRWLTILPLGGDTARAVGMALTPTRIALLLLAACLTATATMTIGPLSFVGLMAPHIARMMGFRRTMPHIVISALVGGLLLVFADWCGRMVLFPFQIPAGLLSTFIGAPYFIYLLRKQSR

[4] = biological target: T4, FhuCB subcomplex with FhuB R390 mutated to Ala (Escherichia coli) (UniProt P07821+P06972); assay: as above
T4 sequence (chain, red-tris-NTA 2nd generation dye on the His-tag) 1: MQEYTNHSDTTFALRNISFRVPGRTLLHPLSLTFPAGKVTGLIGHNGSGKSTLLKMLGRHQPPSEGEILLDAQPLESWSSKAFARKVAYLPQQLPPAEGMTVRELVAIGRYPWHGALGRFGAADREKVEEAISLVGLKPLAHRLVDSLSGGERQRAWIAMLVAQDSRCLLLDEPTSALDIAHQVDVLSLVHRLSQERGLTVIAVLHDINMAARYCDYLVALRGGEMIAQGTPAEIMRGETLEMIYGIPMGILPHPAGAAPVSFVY
T4 sequence (chain, red-tris-NTA 2nd generation dye on the His-tag) 2: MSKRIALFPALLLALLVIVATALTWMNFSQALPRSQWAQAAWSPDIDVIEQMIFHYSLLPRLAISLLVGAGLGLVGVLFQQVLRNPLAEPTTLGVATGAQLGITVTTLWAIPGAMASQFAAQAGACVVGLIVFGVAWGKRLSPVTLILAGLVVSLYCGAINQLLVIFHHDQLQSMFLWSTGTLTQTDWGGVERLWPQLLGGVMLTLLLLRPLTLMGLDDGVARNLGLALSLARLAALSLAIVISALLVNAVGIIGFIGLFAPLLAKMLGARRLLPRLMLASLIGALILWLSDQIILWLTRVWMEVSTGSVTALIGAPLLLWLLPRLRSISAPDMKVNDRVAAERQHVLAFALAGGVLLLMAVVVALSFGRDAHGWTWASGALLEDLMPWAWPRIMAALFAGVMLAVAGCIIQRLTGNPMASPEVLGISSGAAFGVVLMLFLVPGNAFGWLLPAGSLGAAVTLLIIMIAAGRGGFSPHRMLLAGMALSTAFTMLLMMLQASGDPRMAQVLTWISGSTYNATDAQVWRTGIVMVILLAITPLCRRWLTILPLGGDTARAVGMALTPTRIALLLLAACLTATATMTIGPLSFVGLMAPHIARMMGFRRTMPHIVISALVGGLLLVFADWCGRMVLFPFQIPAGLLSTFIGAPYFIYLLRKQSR

[5] = biological target: T5, FhuCB subcomplex with FhuB S57 mutated to Ala (Escherichia coli) (UniProt P07821+P06972); assay: as above
T5 sequence (chain, red-tris-NTA 2nd generation dye on the His-tag) 1: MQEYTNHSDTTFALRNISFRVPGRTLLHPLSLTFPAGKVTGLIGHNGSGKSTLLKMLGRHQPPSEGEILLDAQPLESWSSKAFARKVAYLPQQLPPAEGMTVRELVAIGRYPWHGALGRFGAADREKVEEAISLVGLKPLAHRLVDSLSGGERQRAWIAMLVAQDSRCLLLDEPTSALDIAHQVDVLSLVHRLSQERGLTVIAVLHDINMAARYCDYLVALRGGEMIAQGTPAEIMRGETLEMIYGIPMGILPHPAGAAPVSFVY
T5 sequence (chain, red-tris-NTA 2nd generation dye on the His-tag) 2: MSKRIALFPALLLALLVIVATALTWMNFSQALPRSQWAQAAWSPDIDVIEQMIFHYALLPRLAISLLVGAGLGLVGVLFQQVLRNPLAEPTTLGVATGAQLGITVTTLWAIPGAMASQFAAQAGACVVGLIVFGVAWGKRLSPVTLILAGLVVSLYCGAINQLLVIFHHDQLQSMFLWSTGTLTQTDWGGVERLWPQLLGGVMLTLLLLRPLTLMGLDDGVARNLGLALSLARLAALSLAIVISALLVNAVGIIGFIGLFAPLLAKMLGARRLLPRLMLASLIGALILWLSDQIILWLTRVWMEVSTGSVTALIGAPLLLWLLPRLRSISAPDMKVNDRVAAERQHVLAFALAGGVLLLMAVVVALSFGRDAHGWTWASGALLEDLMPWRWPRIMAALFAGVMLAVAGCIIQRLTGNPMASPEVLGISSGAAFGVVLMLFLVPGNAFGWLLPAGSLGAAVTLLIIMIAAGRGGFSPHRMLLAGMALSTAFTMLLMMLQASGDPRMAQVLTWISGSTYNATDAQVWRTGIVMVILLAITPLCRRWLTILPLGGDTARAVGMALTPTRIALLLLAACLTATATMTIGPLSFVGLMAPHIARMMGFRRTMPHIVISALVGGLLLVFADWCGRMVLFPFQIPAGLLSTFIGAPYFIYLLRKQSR

[6] = biological target: T6, FhuCB subcomplex (membrane subunit FhuB and cytosolic ATPase FhuC of the ferrichrome importer), wild type (Escherichia coli) (UniProt P07821+P06972); assay: MST; 40 nM FhuCB in detergent, His-tag labelled with red-tris-NTA 2nd generation dye; serial dilution of 30 μM FhuD without substrate; with ATP-Mg; Monolith NT.115pico, 20% LED power, medium MST power; both purified
T6 sequence (chain, red-tris-NTA 2nd generation dye on the His-tag (in the MST experiments)) 1: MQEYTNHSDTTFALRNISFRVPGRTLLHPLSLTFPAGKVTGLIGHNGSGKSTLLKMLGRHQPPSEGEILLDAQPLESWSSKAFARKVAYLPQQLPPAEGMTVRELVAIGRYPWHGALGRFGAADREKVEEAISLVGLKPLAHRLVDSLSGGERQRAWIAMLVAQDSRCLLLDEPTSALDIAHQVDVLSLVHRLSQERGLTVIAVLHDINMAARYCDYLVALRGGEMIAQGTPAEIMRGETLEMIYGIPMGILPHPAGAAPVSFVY
T6 sequence (chain, red-tris-NTA 2nd generation dye on the His-tag (in the MST experiments)) 2: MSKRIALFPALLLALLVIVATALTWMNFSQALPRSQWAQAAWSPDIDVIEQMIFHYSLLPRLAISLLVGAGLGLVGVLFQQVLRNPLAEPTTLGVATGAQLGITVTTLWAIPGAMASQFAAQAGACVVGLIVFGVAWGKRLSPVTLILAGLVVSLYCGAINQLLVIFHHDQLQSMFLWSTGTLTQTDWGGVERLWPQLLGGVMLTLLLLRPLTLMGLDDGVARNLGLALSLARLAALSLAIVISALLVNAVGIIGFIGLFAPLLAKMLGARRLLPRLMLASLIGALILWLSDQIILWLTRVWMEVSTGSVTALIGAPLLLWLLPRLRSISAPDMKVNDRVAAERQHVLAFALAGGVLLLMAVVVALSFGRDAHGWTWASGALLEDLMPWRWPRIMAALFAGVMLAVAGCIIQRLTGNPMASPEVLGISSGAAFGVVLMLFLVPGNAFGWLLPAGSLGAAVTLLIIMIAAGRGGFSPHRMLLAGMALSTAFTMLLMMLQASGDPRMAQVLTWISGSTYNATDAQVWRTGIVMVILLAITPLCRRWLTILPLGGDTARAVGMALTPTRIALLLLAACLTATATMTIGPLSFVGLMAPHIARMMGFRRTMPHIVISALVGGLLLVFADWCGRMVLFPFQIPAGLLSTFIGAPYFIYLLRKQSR

[7] = biological target: T6, FhuCB subcomplex (membrane subunit FhuB and cytosolic ATPase FhuC of the ferrichrome importer), wild type (Escherichia coli); assay: MST; 40 nM FhuCB in detergent, His-tag labelled with red-tris-NTA 2nd generation dye; serial dilution of 30 μM FhuD without substrate; without ATP-Mg; Monolith NT.115pico, 20% LED power, medium MST power; both purified

Measured: binding

B1: FhuD, periplasmic substrate-binding protein, expressed alone (natural protein, Escherichia coli, UniProt P07822 31-296, looked up)
chain: AAIDPNRIVALEWLPVELLLALGIVPYGVADTINYRLWVSEPPLPDSVIDVGLRTEPNLELLTEMKPSFMVWSAGYGPSPEMLARIAPGRGFNFSDGKQPLAMARKSLTEMADLLNLQSAAETHLAQYEDFIRSMKPRFVKRGARPLLLTTLIDPRHMLVFGPNSLFQEILDEYGIPNAWQGETNFWGSTAVSIDRLAAYKDVDVLCFDHDNSKDMDALMATPLWQAMPFVRAGRFQRVPAVWFYGATLSAMHFVRVLDNAIGGKA
notes: the gene was amplified and cloned into pET15b; Used without substrate and loaded with the small molecule ferrichrome (told apart by the assays); also called SBP; ferrichrome-loaded FhuD
binds: [1] | [2] | [3] | [4] | [5] | [6] | [7]
